Values of other authors as cited in patent US20240376148A1, “MEDICAMENT FOR INHIBITING DIETARY OBESITY AND POLYPEPTIDE USED THEREFOR” (INSTITUTE OF ZOOLOGY, CHINESE ACADEMY OF SCIENCES, priority 2022, published 2024).
For at least one compound, name, drawing or mass did not settle the structure.

Settings: obese subjects during the medication period; cited from earlier work

For CCCCCCCCCCCCCCCC(=O)N[C@@H](CCC(=O)NCCCC[C@H](NC(=O)[C@H](C)NC(=O)[C@H](C)NC(=O)[C@H](CCC(N)=O)NC(=O)CNC(=O)[C@H](CCC(=O)O)NC(=O)[C@H](CC(C)C)NC(=O)[C@H](Cc1ccc(O)cc1)NC(=O)[C@H](CO)NC(=O)[C@H](CO)NC(=O)[C@@H](NC(=O)[C@H](CC(=O)O)NC(=O)[C@H](CO)NC(=O)[C@@H](NC(=O)[C@H](Cc1ccccc1)NC(=O)[C@@H](NC(=O)CNC(=O)[C@H](CCC(=O)O)NC(=O)[C@H](C)NC(=O)[C@@H](N)Cc1cnc[nH]1)[C@@H](C)O)[C@@H](C)O)C(C)C)C(=O)N[C@@H](CCC(=O)O)C(=O)N[C@@H](Cc1ccccc1)C(=O)N[C@H](C(=O)N[C@@H](C)C(=O)N[C@@H](Cc1c[nH]c2ccccc12)C(=O)N[C@@H](CC(C)C)C(=O)N[C@H](C(=O)N[C@@H](CCCNC(=N)N)C(=O)NCC(=O)N[C@@H](CCCNC(=N)N)C(=O)NCC(=O)O)C(C)C)[C@@H](C)CC)C(=O)O [Liraglutide], the “additional weight lost per year” value is listed as 5.3 to 5.9 kg.
